This is an account of results in publication doi:10.1101/2020.10.29.360891.

One experiment has as its target T1, LAP-Rab34-L61D (human) (UniProt Q9BZG1).
T1 sequence: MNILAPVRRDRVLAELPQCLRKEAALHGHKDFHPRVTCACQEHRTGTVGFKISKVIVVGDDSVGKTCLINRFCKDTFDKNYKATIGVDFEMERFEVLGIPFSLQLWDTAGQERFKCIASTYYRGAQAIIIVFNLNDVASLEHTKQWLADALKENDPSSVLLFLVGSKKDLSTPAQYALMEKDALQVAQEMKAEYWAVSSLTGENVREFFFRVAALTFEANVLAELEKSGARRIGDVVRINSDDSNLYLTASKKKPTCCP
The experiment can be described thus: co-IP.

The next experiment has as its target T2, LAP-Rab34-S166N (human) (UniProt Q9BZG1).
T2 sequence: T1 sequence with D61L, S166N
The experiment can be described thus: co-IP.

Numbering of substitutions follows the chain as printed. Results are given in words; binding and its absence hold for the method and conditions named. In cells and extracts the contact can be indirect. Some entries that bind do so weakly or less than the wild type.

B1: RILPL1 (protein, UniProt Q5EBL4 1-403)
chain: MEEERGSALAAESALEKNVAELTVMDVYDIASLVGHEFERVIDQHGCEAIARLMPKVVRVLEILEVLVSRHHVAPELDELRLELDRLRLERMDRIEKERKHQKELELVEDVWRGEAQDLLSQIAQLQEENKQLMTNLSHKDVNFSEEEFQKHEGMSERERQVMKKLKEVVDKQRDEIRAKDRELGLKNEDVEALQQQQTRLMKINHDLRHRVTVVEAQGKALIEQKVELEADLQTKEQEMGSLRAELGKLRERLQGEHSQNGEEEPETEPVGEESISDAEKVAMDLKDPNRPRFTLQELRDVLHERNELKSKVFLLQEELAYYKSEEMEEENRIPQPPPIAHPRTSPQPESGIKRLFSFFSRDKKRLANTQRNVHIQESFGQWANTHRDDGYTEQGQEALQHL
As to B1, the binding entry in the experiment with LAP-Rab34-L61D (human) and with LAP-Rab34-S166N (human) was “binds” each time.
